PubChem BioAssay AID1224828 | NIAID, 2016

- Purpose: 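Regulators linking TLR4 signalling to p65 nuclear translocation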 (primary screen)
- System: mouse RAW264.7 G9 macrophage reporter cells (GFP-p65, Tnf promoter-mCherry)
- Knock-down reagent: siRNA pool against mouse genes, 100 nM
- Duration: 2 days siRNA transfection, then 40 min LPS before fixation
- Treatment: LPS (Salmonella minnesota R595) at 10 ng/ml
- Measured: 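Microscopy ratio of nuclear to perinuclear-ring GFP-p65 signal, scaled to the plate median; gene score is the average of two replicate robust z-scores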
- Direction: p65 translocation robust z-score: higher = more nuclear NF-kappaB p65 after LPS than the plate median; nuclear/cytoplasmic p65 ratio: higher = more nuclear NF-kappaB p65
- Hit rule: 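Called active when z exceeds 3.3 or falls under -1.56 (median of Tlr4 controls), giving activity score of at least 50; no calls for control wells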
- Meaning of the calls: active = hit (p65 shift raised or lowered); inactive = no clear change
Shown is one part, drawn at random, of about 17,000 reagents. 762 of them (4.5%) were called active. 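Active calls include both raised and lowered p65 entry, mostly lowered; wells with fewer than 50 cells lack a z-score.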 Raw values vary from plate to plate and are shown uncorrected. A number with no mark means an inactive call.

Rcor1 → p65 translocation robust z-score = -0.34; nuclear/cytoplasmic p65 ratio, rep 1 = 1.5; nuclear/cytoplasmic p65 ratio, rep 2 = 1.75; low cell count flag = enough cells to score
Zbtb39 → p65 translocation robust z-score = 1.06; nuclear/cytoplasmic p65 ratio, rep 1 = 1.61; nuclear/cytoplasmic p65 ratio, rep 2 = 1.65; low cell count flag = enough cells to score
Brs3 → p65 translocation robust z-score = -0.4; nuclear/cytoplasmic p65 ratio, rep 1 = 1.42; nuclear/cytoplasmic p65 ratio, rep 2 = 1.55; low cell count flag = enough cells to score
Ifnk → p65 translocation robust z-score = -0.25; nuclear/cytoplasmic p65 ratio, rep 1 = 1.51; nuclear/cytoplasmic p65 ratio, rep 2 = 1.27; low cell count flag = enough cells to score
Tcstv3 → nuclear/cytoplasmic p65 ratio, rep 1 = 1.26; nuclear/cytoplasmic p65 ratio, rep 2 = 1.15; low cell count flag = fewer than 50 cells per well; well left out of scoring
Nkd1 → p65 translocation robust z-score = 1.35; nuclear/cytoplasmic p65 ratio, rep 1 = 1.94; nuclear/cytoplasmic p65 ratio, rep 2 = 1.72; low cell count flag = enough cells to score
Gsc2 → p65 translocation robust z-score = -1.31; nuclear/cytoplasmic p65 ratio, rep 1 = 1.27; nuclear/cytoplasmic p65 ratio, rep 2 = 1.19; low cell count flag = enough cells to score
Ccdc202 → p65 translocation robust z-score = 0.95; nuclear/cytoplasmic p65 ratio, rep 1 = 1.43; nuclear/cytoplasmic p65 ratio, rep 2 = 1.37; low cell count flag = enough cells to score
Rwdd2b → p65 translocation robust z-score = 0.95; nuclear/cytoplasmic p65 ratio, rep 1 = 1.57; nuclear/cytoplasmic p65 ratio, rep 2 = 1.23; low cell count flag = enough cells to score
Ttll9 → nuclear/cytoplasmic p65 ratio, rep 1 = 1.35; nuclear/cytoplasmic p65 ratio, rep 2 = 1.33; low cell count flag = fewer than 50 cells per well; well left out of scoring
Grhl1 → nuclear/cytoplasmic p65 ratio, rep 1 = 1.17; nuclear/cytoplasmic p65 ratio, rep 2 = 1.11; low cell count flag = fewer than 50 cells per well; well left out of scoring
F8a → p65 translocation robust z-score = 1.57; nuclear/cytoplasmic p65 ratio, rep 1 = 1.69; nuclear/cytoplasmic p65 ratio, rep 2 = 1.8; low cell count flag = enough cells to score
Efcab12 → p65 translocation robust z-score = 0.08; nuclear/cytoplasmic p65 ratio, rep 1 = 1.43; nuclear/cytoplasmic p65 ratio, rep 2 = 1.55; low cell count flag = enough cells to score
Alkbh5 → nuclear/cytoplasmic p65 ratio, rep 1 = 1.3; nuclear/cytoplasmic p65 ratio, rep 2 = 1.72; low cell count flag = fewer than 50 cells per well; well left out of scoring
Vsx2 → p65 translocation robust z-score = 0.47; nuclear/cytoplasmic p65 ratio, rep 1 = 1.72; nuclear/cytoplasmic p65 ratio, rep 2 = 1.8; low cell count flag = enough cells to score
Tcp11l1 → p65 translocation robust z-score = -1.5; nuclear/cytoplasmic p65 ratio, rep 1 = 1.24; nuclear/cytoplasmic p65 ratio, rep 2 = 1.3; low cell count flag = enough cells to score
Pkdrej → p65 translocation robust z-score = -0.4; nuclear/cytoplasmic p65 ratio, rep 1 = 1.43; nuclear/cytoplasmic p65 ratio, rep 2 = 1.37; low cell count flag = enough cells to score
Slain2 → p65 translocation robust z-score = 0.19; nuclear/cytoplasmic p65 ratio, rep 1 = 1.39; nuclear/cytoplasmic p65 ratio, rep 2 = 1.38; low cell count flag = enough cells to score
Gosr1 → p65 translocation robust z-score = 1.2; nuclear/cytoplasmic p65 ratio, rep 1 = 1.55; nuclear/cytoplasmic p65 ratio, rep 2 = 1.57; low cell count flag = enough cells to score
Sacm1l → p65 translocation robust z-score = 0.24; nuclear/cytoplasmic p65 ratio, rep 1 = 1.45; nuclear/cytoplasmic p65 ratio, rep 2 = 1.22; low cell count flag = enough cells to score
Slc35a4 → nuclear/cytoplasmic p65 ratio, rep 1 = 1.23; nuclear/cytoplasmic p65 ratio, rep 2 = 1.17; low cell count flag = fewer than 50 cells per well; well left out of scoring

Taken from above:
Under “nuclear/cytoplasmic p65 ratio, rep 1”, Ifnk has 1.51
Result for Rcor1 in “p65 translocation robust z-score”: -0.34
